Data published in patent US20160033523A1.
These are yes or no findings as the source states them, for the method shown. Some binding calls cover weakened binding; strength is not graded here.

Amino acid sequences for entries named in this document (tags omitted). A change or cut given only in a name is not applied to a line headed by its entry.
UniProt Q28522: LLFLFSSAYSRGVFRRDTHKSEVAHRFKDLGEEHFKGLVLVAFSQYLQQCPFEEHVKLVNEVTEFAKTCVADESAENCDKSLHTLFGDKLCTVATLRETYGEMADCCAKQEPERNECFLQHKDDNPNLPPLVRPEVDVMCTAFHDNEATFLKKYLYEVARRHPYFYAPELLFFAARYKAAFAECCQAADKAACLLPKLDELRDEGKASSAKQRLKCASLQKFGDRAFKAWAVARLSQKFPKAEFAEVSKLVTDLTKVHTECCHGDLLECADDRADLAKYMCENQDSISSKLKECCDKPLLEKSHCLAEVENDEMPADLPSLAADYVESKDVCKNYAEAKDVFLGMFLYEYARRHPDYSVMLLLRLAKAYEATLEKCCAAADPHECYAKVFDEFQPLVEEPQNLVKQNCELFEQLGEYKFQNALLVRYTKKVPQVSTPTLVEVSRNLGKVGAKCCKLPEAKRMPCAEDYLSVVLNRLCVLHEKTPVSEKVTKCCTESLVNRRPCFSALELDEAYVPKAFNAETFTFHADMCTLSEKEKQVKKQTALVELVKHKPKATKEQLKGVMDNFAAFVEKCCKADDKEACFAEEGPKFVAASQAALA

What was measured:
[1] = biological target: Soluble rhesus monkey FcRn, GST-tagged, with human beta2-microglobulin (rhesus monkey; Schistosoma japonicum; human) [GST: P08515]; test: SPR (Biacore), albumin 10-0.3 µM injected over immobilized srmFcRn, pH 6.0
[2] = biological target: Soluble dog FcRn, GST-tagged, with human beta2-microglobulin (dog; Schistosoma japonicum; human) [GST: P08515]; test: SPR (Biacore), serial dilutions of albumin injected over immobilized soluble dog FcRn, pH 6.0
[3] = biological target: Soluble pig FcRn, GST-tagged, with human beta2-microglobulin (Example 2) (pig; Schistosoma japonicum; human) [GST: P08515]; test: SPR (Biacore), serial dilutions of albumin injected over immobilized soluble pig FcRn, pH 6.0

Measured: binding

Wild type rhesus monkey serum albumin (from UniProt Q28522 17-600) (ligand)
binds: all assays above
